From US20040072743A1 (priority 2000, published 2004) come the findings set out here.

A short description of this series: general procedure: Boc solid-phase peptide synthesis; MBHA resin (loading 100 μmol/g); HBTU/DIEA (peptide part); HATU/DIEA (PNA monomers). The conditions noted are these: whole synthesis, scale of the general procedure 50 mg resin.

Turning to KFFKFFKFFK-b.ala-cha-ACTTTGTCGCCA-NH2, the “final purity (method not given)” value is listed as 98%.
